The list shows a part of the results.

The target in this experiment is T1, OsSMF1 (Oryza sativa, UniProt Q6ZLB0 1-436).
T1 sequence: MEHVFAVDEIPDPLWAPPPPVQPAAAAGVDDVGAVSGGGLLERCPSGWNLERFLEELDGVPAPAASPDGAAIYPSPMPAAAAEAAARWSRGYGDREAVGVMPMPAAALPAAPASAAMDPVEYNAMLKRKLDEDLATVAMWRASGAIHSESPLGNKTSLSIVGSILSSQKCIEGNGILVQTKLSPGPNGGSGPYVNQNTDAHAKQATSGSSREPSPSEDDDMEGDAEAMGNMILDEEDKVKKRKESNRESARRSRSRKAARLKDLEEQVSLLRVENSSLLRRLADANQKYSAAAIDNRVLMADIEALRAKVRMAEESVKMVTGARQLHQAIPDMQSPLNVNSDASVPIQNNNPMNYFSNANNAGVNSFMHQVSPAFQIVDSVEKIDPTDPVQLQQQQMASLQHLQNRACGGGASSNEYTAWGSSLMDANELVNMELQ
Kind of experiment: protein-binding microarray (RPBM); PBS, 2% BSA, 51.3 ng/ul salmon testes DNA, 50 uM zinc acetate, 200 nM TF, 25 C, 1 h; high values mean tight binding. Conditions: protein: recombinant; tags: N-terminal polyhistidine and DsRed monomer fusion (pET32a); chain copies: 2; label: CyDye5-dUTP incorporated in the synthesized complementary strand; 3' TTTTT single-stranded linker to array surface; dsDNA, one strand shown. The method in brief: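 Transcription factors were each fused at the N-terminus to a polyhistidine tag plus DsRed and expressed in E. coli BL21-CodonPlus before Ni–NTA purification. Binding to a double-stranded custom Agilent array was carried out with 200 nM protein at 25 °C for 1 h in PBS, 2% BSA, salmon testes DNA and 50 µM zinc acetate. The binding signal is per-feature fluorescence intensity, in arbitrary units, on an Axon 4000B scanner.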
Turning to “AAATGTCTCCCAAAACCTCAAAATTGAGTTCCATTATGAACGGAGTCACCTAGTGCAG”, the binding signal is 61600 fluorescence intensity (a.u.).

As to “AATAAATAGGCCTGACGTGAGGCCCACTCGCCACGTCAGCCGGAGTCACCTAGTGCAG”, the binding signal was 44900 fluorescence intensity (a.u.).

With “CTTTTCACGGATCCTAATTTTGACAGGCAAAGAAAGAAAGCGGAGTCACCTAGTGCAG”, the binding signal is 41700 fluorescence intensity (a.u.).

As to “GTGGCTCTACCGGTGTTGGAGGAGGGAATAAGTTCACCTGCGGAGTCACCTAGTGCAG”, the binding signal was 3720 fluorescence intensity (a.u.).

As for “CTCTCCCATCGTGACTACTTTTGTCTGGATATTGTTTGCGCGGAGTCACCTAGTGCAG”, the binding signal was 3530 fluorescence intensity (a.u.).

As to “ATTTCTTAAATATGTAATTTTGTGATAGATTGTGCAAAATCGGAGTCACCTAGTGCAG”, the binding signal is 11600 fluorescence intensity (a.u.).

As for “GGACACCCACGTCCACATCGGCGACCGCCGCCCCAACGCCCGGAGTCACCTAGTGCAG”, the binding signal is 3790 fluorescence intensity (a.u.).

In the case of “TAGACCCACCATTAGTCACACACTCTCCACTCCCCAATTTCGGAGTCACCTAGTGCAG”, the binding signal is 4160 fluorescence intensity (a.u.).

As for “CCTCGCCTCCACGACCGGTCGCCGCCTCGTCCGCGACCGCCGGAGTCACCTAGTGCAG”, the binding signal is 3720 fluorescence intensity (a.u.).

With “TCATGACACTAACCATATTATAGCAATTTGTTACGTACTCCGGAGTCACCTAGTGCAG”, the binding signal was 3480 fluorescence intensity (a.u.).

As to “GGCTTCACCGTGGCGTGGGGCACCAACCATGTCGTCGTGGCGGAGTCACCTAGTGCAG”, the binding signal was 3170 fluorescence intensity (a.u.).

In the case of “CCCGCCCGCTGCTGACGTGAGGGCCCCACTCCACTTGTCACGGAGTCACCTAGTGCAG”, the binding signal is 7100 fluorescence intensity (a.u.).

Turning to “CAGGACCCTTCTCTGTGACCAAGCCACGCAGCCTCAGTTTCGGAGTCACCTAGTGCAG”, the binding signal is 3480 fluorescence intensity (a.u.).

For “ACCTCCTTGCCACCACTGCCTCGGTGCCAGCTGTGTCCTACGGAGTCACCTAGTGCAG”, the binding signal was 3790 fluorescence intensity (a.u.).

Turning to “CACACCGTGCGCTGTGCTCCACTCCACCATCGCTCGCGACCGGAGTCACCTAGTGCAG”, the binding signal was 3400 fluorescence intensity (a.u.).

As to “AATTCAAATATGCTTCCACGTATTATTTAGCCACTCATTTCGGAGTCACCTAGTGCAG”, the binding signal was 5200 fluorescence intensity (a.u.).

Take “TCCTGAGACACTGACCTGTGGGCCCGACGTCAGCGGGGCCCGGAGTCACCTAGTGCAG”: the binding signal is 6730 fluorescence intensity (a.u.).

For the sequence “TGCGTGACGTGGGGATGAGATTGCGTTGTTGCTGCGCCCGCGGAGTCACCTAGTGCAG”, the binding signal is 6350 fluorescence intensity (a.u.).

For the sequence “GACTGATCCAGAGGAATTTCTGATTTCTCCGTCAAGTAAACGGAGTCACCTAGTGCAG”, the binding signal was 24800 fluorescence intensity (a.u.).

As for “GCAGATTGTAATATAATTTCCACGTCTTGATAGTTATGGTCGGAGTCACCTAGTGCAG”, the binding signal is 7030 fluorescence intensity (a.u.).

Turning to “AGGTGGACACCGGCAGCGACGTGTCGTGGGTGCAGTGCAACGGAGTCACCTAGTGCAG”, the binding signal is 5360 fluorescence intensity (a.u.).

Turning to “TATGACATCGGCTCAAAGATAAATGATATGTCATCGGCATCGGAGTCACCTAGTGCAG”, the binding signal is 3540 fluorescence intensity (a.u.).

Take “TGCGCGTCCTGCTCGCCGCTGCCCTCGCTGAGGAGCTCTCCGGAGTCACCTAGTGCAG”: the binding signal was 63600 fluorescence intensity (a.u.).

Consider “TGCTAAGTCAGTAGATGGGATCCACGTGTCAGCGACTTTCCGGAGTCACCTAGTGCAG”, for which the binding signal was 18200 fluorescence intensity (a.u.).

For the sequence “TTAAACCTGCTCTAATTAATGAATCAAACTGTCACCAATGCGGAGTCACCTAGTGCAG”, the binding signal was 4340 fluorescence intensity (a.u.).

In the case of “AATCGTGCTCGATTGACCTCACTAATTCATCCCTGTAACCCGGAGTCACCTAGTGCAG”, the binding signal was 25700 fluorescence intensity (a.u.).

As for “GTGGCCGGCAGTGCTGCCTAGGAATTCAGGGAAATGTCTCCGGAGTCACCTAGTGCAG”, the binding signal is 23600 fluorescence intensity (a.u.).

As for “CGCCTTGCCCACGCCTCGCCCGTCCGCCCGTCGCAGTCTGCGGAGTCACCTAGTGCAG”, the binding signal is 3250 fluorescence intensity (a.u.).

As to “CCGCGGAGAGGAAGGGGAGCCACGTGGTGAGGAACTCCCCCGGAGTCACCTAGTGCAG”, the binding signal was 8530 fluorescence intensity (a.u.).

On to “TAGACTGCAGTTGGTGATTGGACCACCAATCGCTTGCTTGCGGAGTCACCTAGTGCAG”, for which the binding signal was 4100 fluorescence intensity (a.u.).

In the case of “GAAAATAATTGTCGTACACTCGCAGCTATATTTGTTATTTCGGAGTCACCTAGTGCAG”, the binding signal is 3320 fluorescence intensity (a.u.).

As to “ACCTAGTACCGGATATGACACATTCTATTACTACGAATTTCGGAGTCACCTAGTGCAG”, the binding signal was 3690 fluorescence intensity (a.u.).

With “AAATTTGATCCTCGCACACCAGCTCAGCTACAGATGACATCGGAGTCACCTAGTGCAG”, the binding signal is 4230 fluorescence intensity (a.u.).

As for “CCATTGATAAGGGCCACGAATCCTGTTTCCTTCATGAGAACGGAGTCACCTAGTGCAG”, the binding signal is 3280 fluorescence intensity (a.u.).

Consider “TATTATCATATCACTGTTCTTTGAGGATGACGAACAAATCCGGAGTCACCTAGTGCAG”, for which the binding signal was 3660 fluorescence intensity (a.u.).

Consider “TGCCAGATCCGTGCCGGATCTGGCGGATCTGGCGGGGAGGCGGAGTCACCTAGTGCAG”, for which the binding signal is 3860 fluorescence intensity (a.u.).

For the sequence “GCGCCCAACCATATCTCAGTTAATGAGACATTATAGTTTCCGGAGTCACCTAGTGCAG”, the binding signal is 18200 fluorescence intensity (a.u.).

As to “CGTACAGAGAGAGATGCCATTTCTGTCACCTGGCAACGTCCGGAGTCACCTAGTGCAG”, the binding signal was 3270 fluorescence intensity (a.u.).

Take “CCCACCCCACCACCCACCGGCCCCACACGTCAGCTATACACGGAGTCACCTAGTGCAG”: the binding signal was 13600 fluorescence intensity (a.u.).

For the sequence “TGGGGATCAAATTTATGACGTGACGATCGAGATCGGAGAGCGGAGTCACCTAGTGCAG”, the binding signal was 5670 fluorescence intensity (a.u.).

For “GAAGATCCGGGCGTCAGCAGTGACAACCCTCTCTCGTCGTCGGAGTCACCTAGTGCAG”, the binding signal is 8390 fluorescence intensity (a.u.).

As to “AGAGTACGTAAGGCCGTTGCCGTCAAATTGTTTGACAGAACGGAGTCACCTAGTGCAG”, the binding signal is 3140 fluorescence intensity (a.u.).
